Experimental data taken from the supplement of paper PMC10849652.
Some of the results follow.

The chains behind the UniProt entries cited, without tags or fusion partners. Where a name states a change or a piece, a line headed by the entry shows the natural chain unless it says otherwise.
UniProt Q9Y2W2: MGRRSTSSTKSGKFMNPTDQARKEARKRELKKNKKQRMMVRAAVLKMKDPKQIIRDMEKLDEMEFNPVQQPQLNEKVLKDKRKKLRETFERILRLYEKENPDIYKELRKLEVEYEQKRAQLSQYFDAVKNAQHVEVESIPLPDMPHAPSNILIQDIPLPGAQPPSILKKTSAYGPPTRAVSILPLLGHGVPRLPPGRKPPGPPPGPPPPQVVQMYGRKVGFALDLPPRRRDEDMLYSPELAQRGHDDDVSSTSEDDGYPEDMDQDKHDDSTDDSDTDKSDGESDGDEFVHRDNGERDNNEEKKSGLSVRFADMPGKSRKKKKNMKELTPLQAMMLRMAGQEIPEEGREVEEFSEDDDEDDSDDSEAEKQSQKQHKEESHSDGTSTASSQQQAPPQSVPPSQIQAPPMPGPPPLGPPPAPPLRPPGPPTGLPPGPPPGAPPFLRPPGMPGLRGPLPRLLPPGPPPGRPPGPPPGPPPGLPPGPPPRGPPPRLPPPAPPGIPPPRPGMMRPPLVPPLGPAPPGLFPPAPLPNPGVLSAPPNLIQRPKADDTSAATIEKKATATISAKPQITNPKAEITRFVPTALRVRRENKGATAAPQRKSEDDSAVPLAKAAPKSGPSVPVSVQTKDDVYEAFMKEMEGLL
UniProt O00534: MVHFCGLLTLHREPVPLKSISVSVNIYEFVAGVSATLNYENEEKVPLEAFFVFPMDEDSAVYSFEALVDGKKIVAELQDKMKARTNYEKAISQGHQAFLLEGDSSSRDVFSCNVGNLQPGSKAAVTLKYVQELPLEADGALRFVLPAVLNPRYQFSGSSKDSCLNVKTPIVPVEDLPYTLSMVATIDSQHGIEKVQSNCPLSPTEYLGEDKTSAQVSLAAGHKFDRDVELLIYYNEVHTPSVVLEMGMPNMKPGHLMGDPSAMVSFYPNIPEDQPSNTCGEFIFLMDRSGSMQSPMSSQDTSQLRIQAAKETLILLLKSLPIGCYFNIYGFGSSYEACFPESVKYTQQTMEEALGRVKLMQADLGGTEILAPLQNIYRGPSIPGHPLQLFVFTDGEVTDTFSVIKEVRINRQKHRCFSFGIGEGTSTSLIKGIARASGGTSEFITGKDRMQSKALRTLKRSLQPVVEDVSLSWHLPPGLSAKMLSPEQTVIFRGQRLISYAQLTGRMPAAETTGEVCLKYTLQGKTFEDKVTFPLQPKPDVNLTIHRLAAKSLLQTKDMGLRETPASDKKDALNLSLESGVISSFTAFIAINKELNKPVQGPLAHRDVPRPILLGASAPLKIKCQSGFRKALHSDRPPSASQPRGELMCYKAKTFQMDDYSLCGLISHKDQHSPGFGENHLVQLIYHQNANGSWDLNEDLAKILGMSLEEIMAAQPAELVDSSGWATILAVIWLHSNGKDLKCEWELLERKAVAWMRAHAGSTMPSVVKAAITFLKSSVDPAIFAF
UniProt Q96RL7: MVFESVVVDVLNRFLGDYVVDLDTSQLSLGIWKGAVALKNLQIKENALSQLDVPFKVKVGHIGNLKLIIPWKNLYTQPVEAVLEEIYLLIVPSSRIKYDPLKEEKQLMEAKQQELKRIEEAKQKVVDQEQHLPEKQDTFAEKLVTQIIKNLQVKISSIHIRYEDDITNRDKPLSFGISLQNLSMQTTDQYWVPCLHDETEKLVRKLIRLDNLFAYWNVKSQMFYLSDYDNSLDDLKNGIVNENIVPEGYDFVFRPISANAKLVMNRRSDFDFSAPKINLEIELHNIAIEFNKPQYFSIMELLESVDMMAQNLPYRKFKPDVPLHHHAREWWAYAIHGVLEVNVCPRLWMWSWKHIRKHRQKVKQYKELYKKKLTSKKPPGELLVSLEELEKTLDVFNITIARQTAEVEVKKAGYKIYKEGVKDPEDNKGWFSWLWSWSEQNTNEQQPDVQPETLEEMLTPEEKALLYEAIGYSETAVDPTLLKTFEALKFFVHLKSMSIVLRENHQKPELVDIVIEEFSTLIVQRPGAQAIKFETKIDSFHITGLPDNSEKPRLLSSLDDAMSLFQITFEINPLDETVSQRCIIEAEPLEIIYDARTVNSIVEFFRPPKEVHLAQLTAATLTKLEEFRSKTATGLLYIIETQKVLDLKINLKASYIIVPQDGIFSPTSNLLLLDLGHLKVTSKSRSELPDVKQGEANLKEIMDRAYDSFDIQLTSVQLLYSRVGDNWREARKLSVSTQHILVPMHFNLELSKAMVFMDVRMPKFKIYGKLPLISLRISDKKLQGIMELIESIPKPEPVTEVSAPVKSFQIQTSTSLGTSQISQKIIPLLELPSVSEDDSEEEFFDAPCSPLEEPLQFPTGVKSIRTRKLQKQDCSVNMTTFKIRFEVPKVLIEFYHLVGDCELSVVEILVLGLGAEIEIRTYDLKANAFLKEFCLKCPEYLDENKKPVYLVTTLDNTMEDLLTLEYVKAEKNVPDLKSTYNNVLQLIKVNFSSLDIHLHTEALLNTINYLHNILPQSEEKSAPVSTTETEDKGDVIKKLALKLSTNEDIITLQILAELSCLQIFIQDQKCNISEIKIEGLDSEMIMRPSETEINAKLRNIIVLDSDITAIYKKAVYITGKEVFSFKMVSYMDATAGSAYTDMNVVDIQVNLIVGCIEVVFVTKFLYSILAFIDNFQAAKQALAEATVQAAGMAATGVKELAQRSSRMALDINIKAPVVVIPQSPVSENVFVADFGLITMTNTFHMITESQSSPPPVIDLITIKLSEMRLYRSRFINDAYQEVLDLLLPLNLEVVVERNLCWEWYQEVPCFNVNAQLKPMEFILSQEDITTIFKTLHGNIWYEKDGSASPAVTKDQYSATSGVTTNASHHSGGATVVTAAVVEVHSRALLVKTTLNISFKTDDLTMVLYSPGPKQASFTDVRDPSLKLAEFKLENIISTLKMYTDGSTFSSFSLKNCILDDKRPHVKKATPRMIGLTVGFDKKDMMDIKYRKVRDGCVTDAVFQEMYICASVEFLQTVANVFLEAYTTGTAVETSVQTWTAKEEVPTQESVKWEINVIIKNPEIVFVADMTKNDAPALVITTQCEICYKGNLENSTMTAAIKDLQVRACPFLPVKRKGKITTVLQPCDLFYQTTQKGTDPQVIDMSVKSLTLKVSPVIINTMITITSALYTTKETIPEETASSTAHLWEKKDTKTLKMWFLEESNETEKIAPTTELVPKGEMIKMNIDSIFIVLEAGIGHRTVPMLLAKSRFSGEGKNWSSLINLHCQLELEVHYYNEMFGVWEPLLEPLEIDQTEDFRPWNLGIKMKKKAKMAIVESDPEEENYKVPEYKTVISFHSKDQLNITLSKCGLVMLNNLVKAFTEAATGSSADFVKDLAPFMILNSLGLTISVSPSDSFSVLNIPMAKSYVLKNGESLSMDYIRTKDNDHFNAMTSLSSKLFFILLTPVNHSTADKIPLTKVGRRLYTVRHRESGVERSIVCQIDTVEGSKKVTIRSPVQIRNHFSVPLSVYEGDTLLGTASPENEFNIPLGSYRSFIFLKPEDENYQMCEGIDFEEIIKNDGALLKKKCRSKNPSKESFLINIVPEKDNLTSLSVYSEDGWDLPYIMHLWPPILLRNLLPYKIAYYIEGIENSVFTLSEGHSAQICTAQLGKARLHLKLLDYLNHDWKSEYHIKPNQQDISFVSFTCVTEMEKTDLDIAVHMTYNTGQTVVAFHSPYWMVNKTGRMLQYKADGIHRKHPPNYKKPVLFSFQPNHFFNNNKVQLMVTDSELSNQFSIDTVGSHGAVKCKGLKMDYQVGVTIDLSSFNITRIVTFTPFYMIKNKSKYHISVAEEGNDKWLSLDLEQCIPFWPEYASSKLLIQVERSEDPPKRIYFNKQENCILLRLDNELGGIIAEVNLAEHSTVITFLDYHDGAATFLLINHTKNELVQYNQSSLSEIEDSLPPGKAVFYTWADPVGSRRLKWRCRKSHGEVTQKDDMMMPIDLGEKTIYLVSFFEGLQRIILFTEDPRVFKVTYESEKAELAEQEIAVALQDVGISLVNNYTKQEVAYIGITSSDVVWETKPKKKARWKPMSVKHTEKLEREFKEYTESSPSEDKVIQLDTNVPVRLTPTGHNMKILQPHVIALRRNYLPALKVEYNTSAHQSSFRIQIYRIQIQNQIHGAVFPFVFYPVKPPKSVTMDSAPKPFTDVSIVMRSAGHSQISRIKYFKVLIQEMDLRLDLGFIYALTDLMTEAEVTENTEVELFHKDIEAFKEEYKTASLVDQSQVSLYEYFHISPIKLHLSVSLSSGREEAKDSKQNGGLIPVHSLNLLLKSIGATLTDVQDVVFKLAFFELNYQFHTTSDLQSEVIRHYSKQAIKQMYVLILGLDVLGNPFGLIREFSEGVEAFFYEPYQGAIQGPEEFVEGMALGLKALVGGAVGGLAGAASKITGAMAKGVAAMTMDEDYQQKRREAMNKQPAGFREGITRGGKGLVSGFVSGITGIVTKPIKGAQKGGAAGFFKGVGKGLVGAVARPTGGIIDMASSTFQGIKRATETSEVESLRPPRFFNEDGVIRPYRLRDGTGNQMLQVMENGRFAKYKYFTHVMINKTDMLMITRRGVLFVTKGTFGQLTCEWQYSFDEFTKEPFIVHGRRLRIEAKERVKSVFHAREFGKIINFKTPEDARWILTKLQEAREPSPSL
UniProt Q9UN37: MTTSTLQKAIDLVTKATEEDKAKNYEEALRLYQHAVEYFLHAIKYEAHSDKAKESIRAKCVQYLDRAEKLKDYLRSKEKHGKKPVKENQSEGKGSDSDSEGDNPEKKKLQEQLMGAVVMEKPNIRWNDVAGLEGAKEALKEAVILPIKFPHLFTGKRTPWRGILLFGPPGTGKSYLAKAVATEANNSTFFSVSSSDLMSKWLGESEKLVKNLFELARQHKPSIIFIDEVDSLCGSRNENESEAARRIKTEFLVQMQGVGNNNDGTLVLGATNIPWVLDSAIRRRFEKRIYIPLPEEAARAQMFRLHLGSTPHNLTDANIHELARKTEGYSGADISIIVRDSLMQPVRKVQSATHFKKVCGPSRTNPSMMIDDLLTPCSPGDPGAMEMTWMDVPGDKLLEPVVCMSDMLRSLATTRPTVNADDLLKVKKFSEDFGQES
UniProt Q9BUR4: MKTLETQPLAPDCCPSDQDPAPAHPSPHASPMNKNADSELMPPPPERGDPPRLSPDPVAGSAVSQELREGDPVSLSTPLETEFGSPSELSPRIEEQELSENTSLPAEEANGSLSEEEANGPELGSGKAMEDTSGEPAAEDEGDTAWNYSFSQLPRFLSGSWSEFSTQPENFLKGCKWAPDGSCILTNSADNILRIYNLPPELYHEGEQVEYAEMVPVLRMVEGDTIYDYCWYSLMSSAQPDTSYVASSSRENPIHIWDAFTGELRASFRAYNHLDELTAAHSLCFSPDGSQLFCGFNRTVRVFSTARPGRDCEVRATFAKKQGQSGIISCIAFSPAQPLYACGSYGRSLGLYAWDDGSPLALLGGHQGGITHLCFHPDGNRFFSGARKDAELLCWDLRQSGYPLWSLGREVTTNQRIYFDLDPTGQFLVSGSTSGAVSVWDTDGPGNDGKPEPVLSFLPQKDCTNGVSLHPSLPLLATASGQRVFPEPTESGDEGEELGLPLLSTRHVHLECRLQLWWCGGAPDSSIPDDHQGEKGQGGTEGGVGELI
UniProt Q92558: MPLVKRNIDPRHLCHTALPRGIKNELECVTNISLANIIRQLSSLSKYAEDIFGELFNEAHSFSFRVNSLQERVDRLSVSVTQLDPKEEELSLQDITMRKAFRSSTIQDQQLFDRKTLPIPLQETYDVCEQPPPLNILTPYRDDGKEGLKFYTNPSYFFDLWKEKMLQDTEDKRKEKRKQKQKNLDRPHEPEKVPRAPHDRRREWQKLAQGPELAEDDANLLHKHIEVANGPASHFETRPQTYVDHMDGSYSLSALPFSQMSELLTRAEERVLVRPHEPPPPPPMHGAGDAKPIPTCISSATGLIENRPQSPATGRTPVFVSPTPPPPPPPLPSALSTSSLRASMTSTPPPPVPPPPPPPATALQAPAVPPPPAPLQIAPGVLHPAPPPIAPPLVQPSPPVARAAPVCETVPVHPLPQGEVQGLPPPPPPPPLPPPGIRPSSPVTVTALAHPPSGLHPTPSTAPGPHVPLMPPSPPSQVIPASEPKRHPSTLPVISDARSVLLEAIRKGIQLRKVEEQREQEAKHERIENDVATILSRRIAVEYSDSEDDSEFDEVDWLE
UniProt Q4G0F5, whole entry, looked up: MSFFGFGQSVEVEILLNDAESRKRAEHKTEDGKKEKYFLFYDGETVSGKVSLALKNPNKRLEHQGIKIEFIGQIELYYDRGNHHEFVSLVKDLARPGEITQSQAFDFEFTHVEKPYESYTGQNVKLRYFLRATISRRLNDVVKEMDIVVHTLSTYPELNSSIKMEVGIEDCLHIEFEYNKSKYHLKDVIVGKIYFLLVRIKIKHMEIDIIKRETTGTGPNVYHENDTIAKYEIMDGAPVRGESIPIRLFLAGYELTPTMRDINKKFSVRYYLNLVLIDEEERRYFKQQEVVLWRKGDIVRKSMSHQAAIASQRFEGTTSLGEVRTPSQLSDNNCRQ

Compound: C1=CC(=CC=C1C2=NC3=C(N2)C=C(C=C3)C(=O)N)OC4=CC=C(C=C4)Cl
Experiment: log2 fold change, soluble protein after heating vs DMSO (PISA); higher = thermal stabilisation; K562 cells, 10 uM, 30 min; active = over 0.2 and 3.5 SD of the protein, either way, in both replicates (recomputed)
Summary of the method: (§1)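 For each measurement, 10 μM compound was applied for 30 min to K562 cells at 2×10^6 cells/mL. Aliquots were heated for 3 min across 48°C-58°C, pooled, and extracted in PBS with 0.5% NP-40 at 4°C; the supernatant after 21,000xg for 90 min was soluble protein. This was quantified by TMTpro 16plex LC-MS/MS with channel sums equalised, and thermal stability was reported relative to control samples from duplicates, on a log2 fold-change scale.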

log2 fold change, inactive:
WDR5 (UniProt P61964) 0.087
WDR6 (UniProt Q9NNW5) 0.043
WDR13 (UniProt Q9H1Z4) 0.057
VPS4B (UniProt O75351) -0.014
WDR74 (UniProt Q6RFH5) -0.011
WDR36 (UniProt Q8NI36) -0.005
VPS13C (UniProt Q709C8) 0.005
WIPF2 (UniProt Q8TF74) 0.04
VPS36 (UniProt Q86VN1) 0.008
WDR70 (UniProt Q9NW82) 0.002
VPS26A (UniProt O75436) 0.054
VPS29 isoform 2 (UniProt Q9UBQ0) 0.021
WBP11 (UniProt Q9Y2W2) 0.009
WDR26, A0A499FIZ0 0.055
VPS45 (UniProt Q9NRW7) -0.012
WDR82 (UniProt Q6UXN9) -0.008
WDFY1 (UniProt Q8IWB7) 0.012
VPS37B (UniProt Q9H9H4) 0.006
VWDE (UniProt Q8N2E2) 0.019
VWA5A (UniProt O00534) 0.045
VPS13A (UniProt Q96RL7) 0.028
WASL (UniProt O00401) 0.002
WDR73 (UniProt Q6P4I2) 0.017
WASHC4 (UniProt Q2M389) 0.009
VPS35 (UniProt Q96QK1) 0.013
WDR45 (UniProt Q9Y484) -0.022
VPS4A (UniProt Q9UN37) -0.074
WASF2 (UniProt Q9Y6W5) 0.013
WRAP53 (UniProt Q9BUR4) 0.023
WDR77 (UniProt Q9BQA1) -0.035
WIPF3 (UniProt A6NGB9) -0.05
WASF1 (UniProt Q92558) 0.052
VPS26B (UniProt Q4G0F5) 0.018

Compound: C1=CC2=C(C=CC(=C2)/C=C\3/C(=O)NC(=NCC4=CC=CS4)S3)N=C1
Experiment: as above
Summary of the method: as §1

log2 fold change, inactive:
WDR5 (UniProt P61964) -0.056
WDR6 (UniProt Q9NNW5) -0.036
WDR13 (UniProt Q9H1Z4) 0.024
VPS4B (UniProt O75351) 0.015
WDR74 (UniProt Q6RFH5) -0.053
WDR36 (UniProt Q8NI36) -0.051
VPS13C (UniProt Q709C8) 0.075
WIPF2 (UniProt Q8TF74) 0.006
VPS36 (UniProt Q86VN1) 0.038
WDR70 (UniProt Q9NW82) 0.014
VPS26A (UniProt O75436) 0.045
VPS29 isoform 2 (UniProt Q9UBQ0) -0.014
WBP11 (UniProt Q9Y2W2) -0.056
WDR26, A0A499FIZ0 -0.078
VPS45 (UniProt Q9NRW7) 0.052
WDR82 (UniProt Q6UXN9) -0.03
WDFY1 (UniProt Q8IWB7) -0.056
VPS37B (UniProt Q9H9H4) -0.122
VWDE (UniProt Q8N2E2) -0.031
VWA5A (UniProt O00534) 0.008
VPS13A (UniProt Q96RL7) 0.055
WASL (UniProt O00401) -0.005
WDR73 (UniProt Q6P4I2) 0.05
WASHC4 (UniProt Q2M389) 0.008
VPS35 (UniProt Q96QK1) 0.009
WDR45 (UniProt Q9Y484) 0.027
VPS4A (UniProt Q9UN37) -0.017
WASF2 (UniProt Q9Y6W5) -0.013
WRAP53 (UniProt Q9BUR4) 0.037
WDR77 (UniProt Q9BQA1) 0.008
WIPF3 (UniProt A6NGB9) 0.005
WASF1 (UniProt Q92558) 0.033
VPS26B (UniProt Q4G0F5) -0.005

Compound: C1=CC2=NC=CN=C2C=C1/C=C/3\C(=O)NC(=O)S3
Experiment: as above
Summary of the method: as §1

log2 fold change, inactive:
WDR5 (UniProt P61964) 0.02
WDR6 (UniProt Q9NNW5) -0.02
WDR13 (UniProt Q9H1Z4) -0.012
VPS4B (UniProt O75351) 0.004
WDR74 (UniProt Q6RFH5) -0.014
WDR36 (UniProt Q8NI36) 0.03
VPS13C (UniProt Q709C8) 0.035
WIPF2 (UniProt Q8TF74) 0.027
VPS36 (UniProt Q86VN1) 0.042
WDR70 (UniProt Q9NW82) 0.029
VPS26A (UniProt O75436) 0.073
VPS29 isoform 2 (UniProt Q9UBQ0) 0.033
WBP11 (UniProt Q9Y2W2) 0
WDR26, A0A499FIZ0 0.052
VPS45 (UniProt Q9NRW7) -0.039
WDR82 (UniProt Q6UXN9) -0.018
WDFY1 (UniProt Q8IWB7) 0.034
VPS37B (UniProt Q9H9H4) 0.026
VWDE (UniProt Q8N2E2) 0
VWA5A (UniProt O00534) 0.002
VPS13A (UniProt Q96RL7) 0.022
WASL (UniProt O00401) -0.034
WDR73 (UniProt Q6P4I2) -0.004
WASHC4 (UniProt Q2M389) 0.111
VPS35 (UniProt Q96QK1) 0.014
WDR45 (UniProt Q9Y484) 0.066
VPS4A (UniProt Q9UN37) 0.02
WASF2 (UniProt Q9Y6W5) 0.016
WRAP53 (UniProt Q9BUR4) 0.005
WDR77 (UniProt Q9BQA1) 0.011
WIPF3 (UniProt A6NGB9) 0.014
WASF1 (UniProt Q92558) 0.017
VPS26B (UniProt Q4G0F5) 0.016
